Where “and” joins values, the source holds several entries; their conditions need not be identical. Equal entries are not always repeated. Where two headings read alike, the source gives them in different places. At least one compound was matched to its structure with a doubt left.
Assays:
[1] = biological target: R362Q Shaker Kv channel (Drosophila melanogaster, UniProt P08510, DEL6-46/R362Q); assay: G(V) shift on Shaker Kv channel S4 mutant R362Q compared with wt R362; format: cell-based; conditions: 100 μM, pH 7.4, FIG. 9D
Method: (§1) For the Shaker channels, Bluescript II KS(+) plasmid was linearized with HindIII and synthesis of cRNA were made with the T7 mMessage mMachine kit (Ambion, Austin, Tex.). Point mutations around S4, on the Shaker Kv channel, were introduced using QuickChange Site-Directed Mutagenesis Kit (Agilent Technologies, Santa Clara, Calif.) and sequencing were used for verification.
Currents were measured 1-6 days after cRNA injection using the two-electrode voltage clamp technique (GeneClamp 500B amplifier, Axon instruments). Signals were low pass filtered at 5 kHz and digitized by a Digidata 1440A converter (Molecular Devices, Sunnyvale, Calif.). The amplifiers leak compensation was used and Clampex 10.2 software (Molecular Devices) was used to obtain data and create voltage protocols. The extracellular control solution contained (in mM): 1 KCl, 88 NaCl, 0.8 MgCl2, 0.4 CaCl2) and 15 HEPES. pH were adjusted with NaOH. […] In the voltage protocol for the wt and 3R Shaker channel, holding potential was set to −80 mV and steady-state currents were measured at voltages between −80 and +50 mV (wt Shaker Kv channel) or +70 mV (3R Shaker Kv channel), using 5 mV increments, 100 ms. […] For the M-channel, holding potential was set to −100 mV, test-voltages were measured between −120 and +50 mV (10 mV increments for 2 s) and tail currents were measured at −30 mV. […]

By UniProt entry, the sequences of proteins in these tests, tags left out. Chains listed by the source or under a name are the forms on record and can include a tag or linker.
UniProt P08510, other isoform, or with tags, fused parts or gaps DEL6-46/R362Q: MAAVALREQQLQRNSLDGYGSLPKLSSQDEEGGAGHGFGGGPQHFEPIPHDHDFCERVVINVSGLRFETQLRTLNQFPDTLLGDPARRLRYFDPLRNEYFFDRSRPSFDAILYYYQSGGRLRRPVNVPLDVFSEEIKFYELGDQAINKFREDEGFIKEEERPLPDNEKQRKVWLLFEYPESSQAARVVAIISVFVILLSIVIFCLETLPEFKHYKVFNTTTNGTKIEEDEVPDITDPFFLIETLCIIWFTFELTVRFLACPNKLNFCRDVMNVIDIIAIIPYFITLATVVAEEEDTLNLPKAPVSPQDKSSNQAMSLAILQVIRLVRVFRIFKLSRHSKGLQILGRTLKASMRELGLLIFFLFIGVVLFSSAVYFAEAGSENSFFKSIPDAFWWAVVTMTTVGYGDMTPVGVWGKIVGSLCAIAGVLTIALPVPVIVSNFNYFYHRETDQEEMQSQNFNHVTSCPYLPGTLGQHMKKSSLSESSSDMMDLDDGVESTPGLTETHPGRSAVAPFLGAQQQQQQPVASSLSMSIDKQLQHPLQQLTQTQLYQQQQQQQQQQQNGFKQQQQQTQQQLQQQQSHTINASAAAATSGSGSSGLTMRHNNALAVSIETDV
UniProt P08510, other isoform, or with tags, fused parts or gaps DEL6-46/M356R/A359R: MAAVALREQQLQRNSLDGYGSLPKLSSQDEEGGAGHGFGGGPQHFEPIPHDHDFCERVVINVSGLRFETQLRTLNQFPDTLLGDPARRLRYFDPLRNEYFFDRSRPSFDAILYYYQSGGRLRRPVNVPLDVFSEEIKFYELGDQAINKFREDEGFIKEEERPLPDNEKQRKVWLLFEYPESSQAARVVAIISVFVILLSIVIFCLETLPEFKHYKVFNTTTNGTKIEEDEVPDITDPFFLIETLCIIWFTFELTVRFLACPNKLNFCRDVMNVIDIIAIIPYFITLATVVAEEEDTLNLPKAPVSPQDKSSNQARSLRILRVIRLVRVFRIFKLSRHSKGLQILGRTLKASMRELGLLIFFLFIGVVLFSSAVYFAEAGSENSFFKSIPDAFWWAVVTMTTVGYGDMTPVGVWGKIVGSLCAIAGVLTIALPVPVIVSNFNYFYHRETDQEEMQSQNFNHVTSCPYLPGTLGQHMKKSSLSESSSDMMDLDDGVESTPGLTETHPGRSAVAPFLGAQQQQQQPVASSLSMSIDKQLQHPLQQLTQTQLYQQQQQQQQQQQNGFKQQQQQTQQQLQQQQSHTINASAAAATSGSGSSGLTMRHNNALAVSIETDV
UniProt P08510, other isoform, or with tags, fused parts or gaps DEL6-46: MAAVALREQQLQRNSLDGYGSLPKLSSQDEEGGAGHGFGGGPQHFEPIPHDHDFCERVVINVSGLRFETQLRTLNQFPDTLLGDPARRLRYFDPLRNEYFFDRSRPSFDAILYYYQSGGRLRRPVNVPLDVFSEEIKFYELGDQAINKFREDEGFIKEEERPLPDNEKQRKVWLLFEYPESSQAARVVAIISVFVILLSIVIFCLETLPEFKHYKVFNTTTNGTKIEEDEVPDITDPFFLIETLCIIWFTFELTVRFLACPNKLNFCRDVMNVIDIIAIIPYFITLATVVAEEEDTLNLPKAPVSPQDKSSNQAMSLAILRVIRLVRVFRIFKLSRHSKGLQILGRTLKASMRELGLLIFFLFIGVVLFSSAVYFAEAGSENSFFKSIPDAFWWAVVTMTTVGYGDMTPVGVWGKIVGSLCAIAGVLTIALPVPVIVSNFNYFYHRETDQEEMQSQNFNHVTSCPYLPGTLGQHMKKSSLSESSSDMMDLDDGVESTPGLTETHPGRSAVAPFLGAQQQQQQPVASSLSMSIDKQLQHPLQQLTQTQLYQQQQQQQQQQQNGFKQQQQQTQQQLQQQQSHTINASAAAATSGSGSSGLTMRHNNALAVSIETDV

[2] = biological target: T1, 3R Shaker Kv channel (M356R/A359R) (Drosophila melanogaster, UniProt P08510, A359R/DEL6-46/M356R); format: cell-based; conditions: for G(V) shift: mean
Text: (§2) Experiments were made with the Shaker H4 channel incapable of fast N-type inactivation due to a Δ6-46 deletion, referred to as the wt Shaker Kv channel. The 3R Shaker Kv channel with two additional positively charged arginines (M356R/A359R) in the extracellular end of S4, was also used.
as §1
50 nl cRNA was injected into Xenopus laevis oocytes using a Nanoject injector (Drummond Scientific, Broomall, Pa.) and the oocytes were stored at 8° C. in a modified Barth's solution (MBS) before experiments (16° C., M-channel, 1-2 days). […]
(§3) Currents were measured 1-6 days after cRNA injection using the two-electrode voltage clamp technique (GeneClamp 500B amplifier, Axon instruments). […] In the voltage protocol for the wt and 3R Shaker channel, holding potential was set to −80 mV and steady-state currents were measured at voltages between −80 and +50 mV (wt Shaker Kv channel) or +70 mV (3R Shaker Kv channel), using 5 mV increments, 100 ms. […] For the M-channel, holding potential was set to −100 mV, test-voltages were measured between −120 and +50 mV (10 mV increments for 2 s) and tail currents were measured at −30 mV.
Control solution was perfused to the recording chamber (0.5 ml/min) and the test solution was added manually with a syringe, in a volume large enough to replace the control solution manifold. […] Recovery was measured after continuously perfusion of control solution, maximum 5 min. […]
Currents were leak subtracted and steady-state currents were measured 80-86 ms after onset of the test voltages (Clampfit 10.5, Molecular Devices). K conductance, GK, was calculated using, […]
To quantify the concentration dependence or pH dependence of the GK(V) shifts the following equation was used: […]

[3] = biological target: wt Shaker Kv channel (Shaker H4, Δ6-46) (Drosophila melanogaster, UniProt P08510, DEL6-46); assay: Two-electrode voltage clamp, G(V) shift on wt Shaker Kv channel expressed in Xenopus laevis oocytes; format: cell-based; conditions: pH 10, 100 μM, mean
Text: as §2
as §1, with “verification. […]” for “verification.”
as §3, with “mV. […]” for “mV.”
Currents were leak subtracted and steady-state currents were measured 80-86 ms after onset of the test voltages (Clampfit 10.5, Molecular Devices). […]

[4] = biological target: T1, 3R Shaker Kv channel (M356R/A359R); conditions: pH 7.4, data from Ottosson et al. Sci. Rep. 5, 13278 (2015); cited from earlier work

SMILES	Effect on R362Q compared with wt R362 [1]	G(V) shift ([2]; pH 7.4, 100 μM)	G(V) shift (example recording, normalized G(V) curves) ([2]; pH 7.4, 100 μM, single recording of FIG. 2C)	G(V) shift ([2]; pH 10, 100 μM)	G(V) shift [3]	ΔVMAX (maximum shift) [4]
CC/C=C\C/C=C\C/C=C\C/C=C\C/C=C\C/C=C\CCC(=O)O [DHA, Docosahexaenoic acid]	about the same effects					
CC(C)c1ccc2c(c1)CC[C@H]1[C@](C)(C(=O)O)CCC[C@]21C [DHAA, dehydroabietic acid]	about twice as large effect	−13.59 mV	−13.0 mV	−24.73 mV	−1.59 mV	−26.5 mV and −26.5±2.2 mV

Reference: US20200239412A1, “NEW DERIVATES OF DHAA WITH ELECTROSTATIC TUNING” (priority 2017, published 2020)
